Test results from paper PMC4018362.
No constants are given. Whether binding was seen depends on the method and setting. A result given as binding can be weak or reduced; the word gives no strength. For some assays here: In cells and extracts the contact can be indirect. For some assays here: Tags and fused reporters may be left off the sequences shown.

Columns and labels:
[1] = target: T1, THRAP3 fused to the N-terminal half of YFP (UniProt Q9Y2W1); assay: split reporter; YFP BiFC (THRAP3-YN with YC fusions of nTRIP6 and its variants) in transfected cells (HEK293 by the legend, HeLa by the text), mCherry-NES as transfection control, confocal imaging
T1 sequence: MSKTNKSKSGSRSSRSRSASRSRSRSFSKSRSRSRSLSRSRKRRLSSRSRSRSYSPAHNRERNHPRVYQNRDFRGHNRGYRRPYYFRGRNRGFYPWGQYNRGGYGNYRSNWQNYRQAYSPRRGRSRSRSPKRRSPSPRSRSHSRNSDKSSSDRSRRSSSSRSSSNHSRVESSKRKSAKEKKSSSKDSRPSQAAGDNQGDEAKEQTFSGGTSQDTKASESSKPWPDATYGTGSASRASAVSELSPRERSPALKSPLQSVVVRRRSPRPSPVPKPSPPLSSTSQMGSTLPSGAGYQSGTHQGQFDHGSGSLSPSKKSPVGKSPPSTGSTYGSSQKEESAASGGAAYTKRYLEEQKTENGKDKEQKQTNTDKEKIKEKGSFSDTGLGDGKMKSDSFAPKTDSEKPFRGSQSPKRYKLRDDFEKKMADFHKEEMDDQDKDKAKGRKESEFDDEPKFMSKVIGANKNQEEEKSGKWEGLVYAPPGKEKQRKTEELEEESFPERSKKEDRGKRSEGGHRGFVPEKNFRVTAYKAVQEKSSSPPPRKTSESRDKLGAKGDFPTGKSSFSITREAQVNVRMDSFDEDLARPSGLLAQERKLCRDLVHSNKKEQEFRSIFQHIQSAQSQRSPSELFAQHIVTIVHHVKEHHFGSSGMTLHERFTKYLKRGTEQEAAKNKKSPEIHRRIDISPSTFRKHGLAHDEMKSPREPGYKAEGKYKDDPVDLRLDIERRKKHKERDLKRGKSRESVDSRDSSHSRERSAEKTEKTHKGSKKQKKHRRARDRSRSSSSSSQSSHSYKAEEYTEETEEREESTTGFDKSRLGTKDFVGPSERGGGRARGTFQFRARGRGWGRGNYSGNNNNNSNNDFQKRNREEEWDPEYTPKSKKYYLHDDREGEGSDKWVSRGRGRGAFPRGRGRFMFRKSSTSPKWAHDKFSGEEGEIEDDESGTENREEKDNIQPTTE

[2] = target: T2, nTRIP6 Dimerization Domain 1 peptide (SPOT membrane); assay: peptide or protein array; peptide SPOT: 15-mers of the nTRIP6 pre-LIM region shifted by 3 residues on a cellulose membrane, incubated overnight at 4°C with 10 µg/ml purified GST-nTRIP6 in blocking buffer (2% milk powder, 5% sucrose in TBS, pH 8.0), detected with an anti-GST antibody; both purified
T2 sequence (peptide): AQPVRGCGPPRRG

[3] = target: T3, nTRIP6 Dimerization Domain 2 peptide (SPOT membrane); assay: as above
T3 sequence (peptide): EDELDRLTKKLVH

[4] = target: T1, THRAP3 fused to the N-terminal half of YFP; assay: split reporter; competition: YFP BiFC of nTRIP6-YC and THRAP3-YN in HEK293 cells with empty vector or increasing amounts of a GR expression vector

Row | binding [1] | Substance | also measured
1 | binds | the LIM domains alone fused to YC (domain or fragment) | 
2 |  | recombinant nTRIP6 fused to GST | binding [2]: binds; binding [3]: binds
3 | binds | nTRIP6 fused to the C-terminal half of YFP | binding [4]: binds
4 | binds | nTRIP6 LIM domain 2 mutant fused to YC | 
5 | binds | nTRIP6 LIM domain 1 mutant fused to YC | 
6 | binds | nTRIP6 LIM domain 3 mutant fused to YC | 
